# These are yes or no findings as the source states them, for the method shown. Binding calls can cover weak binding; strength is not graded here.
# How the values were obtained:
# [1] = target: cynomolgus 5T4 (Macaca mulatta (cynomolgus)); test: flow cytometry, CHO cells transfected with cynomolgus 5T4
# [2] = target: cynomolgus 5T4 (Macaca mulatta (cynomolgus)); test: flow cytometry on CHO cells transfected with cynomolgus 5T4, each curve normalised to its own maximum
binding [1],binding [2],Binder
binds,binds,"1206/1207 (antibody, V domains shown) VH: EVQLLESGGGLVQPGGSLRLSCAASGFTFSGSSMSWVRQAPGKGLEWVSSIYYSGSGTYYADSVKGRFTISRDNSKNTLYLQMNSLRAEDTAVYYCARYGRNVHPYNLDYWGQGTLVTVSS VL: DIQMTQSPSSLSASVGDRVTITCRASQSISSYLNWYQQKPGKAPKLLIYAASSLQSGVPSRFSGSGSGTDFTLTISSLQPEDFATYYCQQGYYYLPTFGQGTKLEIK"
binds,binds,"1212/1213 (antibody, IgG1, V domains shown) VH: EVQLLESGGGLVQPGGSLRLSCAASGFTFSSYAMSWVRQAPGKGLEWVSYISSYGGYTSYADSVKGRFTISRDNSKNTLYLQMNSLRAEDTAVYYCARYHSGVLDYWGQGTLVTVSS VL: DIQMTQSPSSLSASVGDRVTITCRASQSISSYLNWYQQKPGKAPKLLIYAASSLQSGVPSRFSGSGSGTDFTLTISSLQPEDFATYYCQQYYYHYLLTFGQGTKLEIK"

# From patent US20190161555A1
